Experimental data: PubChem BioAssay AID1224830 (NIAID, 2016)
The whole screen tested about 18,000 reagents; shown is a part drawn at random. About 2,900 of all reagents (16%) were called active. 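Calls are made per well; low scores hint the gene aids the LPS response, high scores that it dampens it.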 Repeated entries: four replicate wells of each siRNA pool. Reagent sequences are not shown.

Aim: 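Regulators of TLR4 signalling towards TNF-alpha in macrophage-like cells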 (primary screen)
System: human THP-1 monocytic leukaemia cells, TNF dual-luciferase reporter clone, PMA-differentiated to macrophage-like cells
Reagent: siRNA pool against human genes, 50 nM
Timing: LPS for 4 h, given about 3 days after siRNA transfection
Conditions: bacterial LPS (TLR4 ligand), 10 ng/ml
Detection: 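TNF firefly reporter luminescence divided by renilla, normalised to the plate median, then turned into a robust z-score for each replicate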
Direction: TNF reporter robust z-score: higher = stronger TNF reporter response to LPS
Active means: 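a well is active when its z-score exceeds 2.8 or falls below -1.5; control wells carry no call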

CIDEB (cell death inducing DFFA like effector b) — TNF reporter robust z-score: -0.88; Call: inactive
CIDEB (cell death inducing DFFA like effector b) — TNF reporter robust z-score: -0.82; Call: inactive
CIDEB (cell death inducing DFFA like effector b) — TNF reporter robust z-score: -1.11; Call: inactive
CIDEB (cell death inducing DFFA like effector b) — TNF reporter robust z-score: -0.22; Call: inactive
SLC60A2 — TNF reporter robust z-score: -0.55; Call: inactive
SLC60A2 — TNF reporter robust z-score: -0.45; Call: inactive
SLC60A2 — TNF reporter robust z-score: -0.48; Call: inactive
SLC60A2 — TNF reporter robust z-score: 0.36; Call: inactive
ASZ1 — TNF reporter robust z-score: -0.62; Call: inactive
ASZ1 — TNF reporter robust z-score: -0.34; Call: inactive
ASZ1 — TNF reporter robust z-score: 0.12; Call: inactive
ASZ1 — TNF reporter robust z-score: 0.06; Call: inactive
RP1 (RP1 axonemal microtubule associated) — TNF reporter robust z-score: 2.37; Call: inactive
RP1 (RP1 axonemal microtubule associated) — TNF reporter robust z-score: 2.07; Call: inactive
RP1 (RP1 axonemal microtubule associated) — TNF reporter robust z-score: -0.03; Call: inactive
RP1 (RP1 axonemal microtubule associated) — TNF reporter robust z-score: 0.42; Call: inactive
NXNL2 (nucleoredoxin like 2) — TNF reporter robust z-score: -0.17; Call: inactive
NXNL2 (nucleoredoxin like 2) — TNF reporter robust z-score: -0.73; Call: inactive
NXNL2 (nucleoredoxin like 2) — TNF reporter robust z-score: -0.91; Call: inactive
NXNL2 (nucleoredoxin like 2) — TNF reporter robust z-score: -0.66; Call: inactive
SEC24C (SEC24 homolog C, COPII component) — TNF reporter robust z-score: 0.63; Call: inactive
SEC24C (SEC24 homolog C, COPII component) — TNF reporter robust z-score: -0.25; Call: inactive
SEC24C (SEC24 homolog C, COPII component) — TNF reporter robust z-score: -1.6; Call: active
SEC24C (SEC24 homolog C, COPII component) — TNF reporter robust z-score: -0.03; Call: inactive
OR4P4 (olfactory receptor family 4 subfamily P member 4) — TNF reporter robust z-score: -0.79; Call: inactive
OR4P4 (olfactory receptor family 4 subfamily P member 4) — TNF reporter robust z-score: -0.98; Call: inactive
OR4P4 (olfactory receptor family 4 subfamily P member 4) — TNF reporter robust z-score: -1.34; Call: inactive
OR4P4 (olfactory receptor family 4 subfamily P member 4) — TNF reporter robust z-score: 0.2; Call: inactive
TTC14 (tetratricopeptide repeat domain 14) — TNF reporter robust z-score: -0.41; Call: inactive
TTC14 (tetratricopeptide repeat domain 14) — TNF reporter robust z-score: -0.87; Call: inactive
TTC14 (tetratricopeptide repeat domain 14) — TNF reporter robust z-score: -0.8; Call: inactive
TTC14 (tetratricopeptide repeat domain 14) — TNF reporter robust z-score: -0.63; Call: inactive
OSTC (oligosaccharyltransferase complex non-catalytic subunit) — TNF reporter robust z-score: 0.85; Call: inactive
OSTC (oligosaccharyltransferase complex non-catalytic subunit) — TNF reporter robust z-score: 0.79; Call: inactive
OSTC (oligosaccharyltransferase complex non-catalytic subunit) — TNF reporter robust z-score: 1.69; Call: inactive
OSTC (oligosaccharyltransferase complex non-catalytic subunit) — TNF reporter robust z-score: 0.39; Call: inactive
AGO1 (argonaute RISC component 1) — TNF reporter robust z-score: 1.12; Call: inactive
AGO1 (argonaute RISC component 1) — TNF reporter robust z-score: 1.81; Call: inactive
AGO1 (argonaute RISC component 1) — TNF reporter robust z-score: 0.76; Call: inactive
AGO1 (argonaute RISC component 1) — TNF reporter robust z-score: 1.21; Call: inactive
CFHR1 (complement factor H related 1) — TNF reporter robust z-score: 0.6; Call: inactive
CFHR1 (complement factor H related 1) — TNF reporter robust z-score: 0.77; Call: inactive
CFHR1 (complement factor H related 1) — TNF reporter robust z-score: 0.64; Call: inactive
CFHR1 (complement factor H related 1) — TNF reporter robust z-score: 1.21; Call: inactive
PDE1A (phosphodiesterase 1A) — TNF reporter robust z-score: 0.1; Call: inactive
PDE1A (phosphodiesterase 1A) — TNF reporter robust z-score: 1.11; Call: inactive
PDE1A (phosphodiesterase 1A) — TNF reporter robust z-score: 0.05; Call: inactive
PDE1A (phosphodiesterase 1A) — TNF reporter robust z-score: 1.02; Call: inactive

Ordered by “TNF reporter robust z-score” (ascending): 6 of the entries above.
TTC14 (tetratricopeptide repeat domain 14) — TNF reporter robust z-score: -0.8; Call: inactive
TTC14 (tetratricopeptide repeat domain 14) — TNF reporter robust z-score: -0.63; Call: inactive
OSTC (oligosaccharyltransferase complex non-catalytic subunit) — TNF reporter robust z-score: 0.39; Call: inactive
OSTC (oligosaccharyltransferase complex non-catalytic subunit) — TNF reporter robust z-score: 0.79; Call: inactive
OSTC (oligosaccharyltransferase complex non-catalytic subunit) — TNF reporter robust z-score: 0.85; Call: inactive
OSTC (oligosaccharyltransferase complex non-catalytic subunit) — TNF reporter robust z-score: 1.69; Call: inactive
